Measured values taken from patent US20100093018A1, “CELLS […] PROTEINS AND ASSAYS USING SUCH CELLS” (ACHILLION PHARMACEUTICALS, INC., priority 2007, published 2010).
Results are given in words; binding and its absence hold for the method and conditions named. In cells and extracts the contact can be indirect. Some results given as binding are weak or reduced against the parent protein; the word gives no strength.

Target: HCV NS3 protein (hepatitis C virus) (UniProt Q9WMX2)
Test: co-immunoprecipitation of viral proteins from replicon cells

Which binding does the source give for “HCV NS4A protein (from UniProt Q9WMX2 1658-1711)” here?
Its binding is “binds”.
